From article PMC4686857
No constants are given. Whether binding was seen depends on the method and setting. In cells and extracts the contact can be indirect. Some binding calls cover weakened binding; strength is not graded here.

Chains of the proteins cited; added tags and fusions are not shown. Lines headed by an entry give the natural chain unless they say otherwise; changes in a name come on top. A line that says so, or that is headed by a name, gives the form on record, which may keep a tag or linker. Residues count along the entry.
UniProt P62834: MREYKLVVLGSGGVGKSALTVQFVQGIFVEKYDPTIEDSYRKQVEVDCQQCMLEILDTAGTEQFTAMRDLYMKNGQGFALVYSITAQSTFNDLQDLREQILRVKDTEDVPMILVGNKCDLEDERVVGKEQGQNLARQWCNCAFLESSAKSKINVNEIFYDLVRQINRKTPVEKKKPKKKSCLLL
T7-tagged Rap1N17 (constitutively negative mutant of human Rap1a) (P62834, form named): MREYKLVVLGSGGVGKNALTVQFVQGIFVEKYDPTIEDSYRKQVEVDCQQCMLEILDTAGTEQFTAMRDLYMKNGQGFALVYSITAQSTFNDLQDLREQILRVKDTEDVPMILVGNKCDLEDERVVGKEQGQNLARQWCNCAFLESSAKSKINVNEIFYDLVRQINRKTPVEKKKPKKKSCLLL
T7-tagged Rap1V12 (constitutively active mutant of human Rap1a) (P62834, form named): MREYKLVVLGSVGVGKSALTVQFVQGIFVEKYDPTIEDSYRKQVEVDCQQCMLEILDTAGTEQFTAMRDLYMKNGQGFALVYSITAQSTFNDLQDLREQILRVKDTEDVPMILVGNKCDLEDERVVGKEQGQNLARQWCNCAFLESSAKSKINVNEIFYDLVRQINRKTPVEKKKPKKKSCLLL
UniProt P21333: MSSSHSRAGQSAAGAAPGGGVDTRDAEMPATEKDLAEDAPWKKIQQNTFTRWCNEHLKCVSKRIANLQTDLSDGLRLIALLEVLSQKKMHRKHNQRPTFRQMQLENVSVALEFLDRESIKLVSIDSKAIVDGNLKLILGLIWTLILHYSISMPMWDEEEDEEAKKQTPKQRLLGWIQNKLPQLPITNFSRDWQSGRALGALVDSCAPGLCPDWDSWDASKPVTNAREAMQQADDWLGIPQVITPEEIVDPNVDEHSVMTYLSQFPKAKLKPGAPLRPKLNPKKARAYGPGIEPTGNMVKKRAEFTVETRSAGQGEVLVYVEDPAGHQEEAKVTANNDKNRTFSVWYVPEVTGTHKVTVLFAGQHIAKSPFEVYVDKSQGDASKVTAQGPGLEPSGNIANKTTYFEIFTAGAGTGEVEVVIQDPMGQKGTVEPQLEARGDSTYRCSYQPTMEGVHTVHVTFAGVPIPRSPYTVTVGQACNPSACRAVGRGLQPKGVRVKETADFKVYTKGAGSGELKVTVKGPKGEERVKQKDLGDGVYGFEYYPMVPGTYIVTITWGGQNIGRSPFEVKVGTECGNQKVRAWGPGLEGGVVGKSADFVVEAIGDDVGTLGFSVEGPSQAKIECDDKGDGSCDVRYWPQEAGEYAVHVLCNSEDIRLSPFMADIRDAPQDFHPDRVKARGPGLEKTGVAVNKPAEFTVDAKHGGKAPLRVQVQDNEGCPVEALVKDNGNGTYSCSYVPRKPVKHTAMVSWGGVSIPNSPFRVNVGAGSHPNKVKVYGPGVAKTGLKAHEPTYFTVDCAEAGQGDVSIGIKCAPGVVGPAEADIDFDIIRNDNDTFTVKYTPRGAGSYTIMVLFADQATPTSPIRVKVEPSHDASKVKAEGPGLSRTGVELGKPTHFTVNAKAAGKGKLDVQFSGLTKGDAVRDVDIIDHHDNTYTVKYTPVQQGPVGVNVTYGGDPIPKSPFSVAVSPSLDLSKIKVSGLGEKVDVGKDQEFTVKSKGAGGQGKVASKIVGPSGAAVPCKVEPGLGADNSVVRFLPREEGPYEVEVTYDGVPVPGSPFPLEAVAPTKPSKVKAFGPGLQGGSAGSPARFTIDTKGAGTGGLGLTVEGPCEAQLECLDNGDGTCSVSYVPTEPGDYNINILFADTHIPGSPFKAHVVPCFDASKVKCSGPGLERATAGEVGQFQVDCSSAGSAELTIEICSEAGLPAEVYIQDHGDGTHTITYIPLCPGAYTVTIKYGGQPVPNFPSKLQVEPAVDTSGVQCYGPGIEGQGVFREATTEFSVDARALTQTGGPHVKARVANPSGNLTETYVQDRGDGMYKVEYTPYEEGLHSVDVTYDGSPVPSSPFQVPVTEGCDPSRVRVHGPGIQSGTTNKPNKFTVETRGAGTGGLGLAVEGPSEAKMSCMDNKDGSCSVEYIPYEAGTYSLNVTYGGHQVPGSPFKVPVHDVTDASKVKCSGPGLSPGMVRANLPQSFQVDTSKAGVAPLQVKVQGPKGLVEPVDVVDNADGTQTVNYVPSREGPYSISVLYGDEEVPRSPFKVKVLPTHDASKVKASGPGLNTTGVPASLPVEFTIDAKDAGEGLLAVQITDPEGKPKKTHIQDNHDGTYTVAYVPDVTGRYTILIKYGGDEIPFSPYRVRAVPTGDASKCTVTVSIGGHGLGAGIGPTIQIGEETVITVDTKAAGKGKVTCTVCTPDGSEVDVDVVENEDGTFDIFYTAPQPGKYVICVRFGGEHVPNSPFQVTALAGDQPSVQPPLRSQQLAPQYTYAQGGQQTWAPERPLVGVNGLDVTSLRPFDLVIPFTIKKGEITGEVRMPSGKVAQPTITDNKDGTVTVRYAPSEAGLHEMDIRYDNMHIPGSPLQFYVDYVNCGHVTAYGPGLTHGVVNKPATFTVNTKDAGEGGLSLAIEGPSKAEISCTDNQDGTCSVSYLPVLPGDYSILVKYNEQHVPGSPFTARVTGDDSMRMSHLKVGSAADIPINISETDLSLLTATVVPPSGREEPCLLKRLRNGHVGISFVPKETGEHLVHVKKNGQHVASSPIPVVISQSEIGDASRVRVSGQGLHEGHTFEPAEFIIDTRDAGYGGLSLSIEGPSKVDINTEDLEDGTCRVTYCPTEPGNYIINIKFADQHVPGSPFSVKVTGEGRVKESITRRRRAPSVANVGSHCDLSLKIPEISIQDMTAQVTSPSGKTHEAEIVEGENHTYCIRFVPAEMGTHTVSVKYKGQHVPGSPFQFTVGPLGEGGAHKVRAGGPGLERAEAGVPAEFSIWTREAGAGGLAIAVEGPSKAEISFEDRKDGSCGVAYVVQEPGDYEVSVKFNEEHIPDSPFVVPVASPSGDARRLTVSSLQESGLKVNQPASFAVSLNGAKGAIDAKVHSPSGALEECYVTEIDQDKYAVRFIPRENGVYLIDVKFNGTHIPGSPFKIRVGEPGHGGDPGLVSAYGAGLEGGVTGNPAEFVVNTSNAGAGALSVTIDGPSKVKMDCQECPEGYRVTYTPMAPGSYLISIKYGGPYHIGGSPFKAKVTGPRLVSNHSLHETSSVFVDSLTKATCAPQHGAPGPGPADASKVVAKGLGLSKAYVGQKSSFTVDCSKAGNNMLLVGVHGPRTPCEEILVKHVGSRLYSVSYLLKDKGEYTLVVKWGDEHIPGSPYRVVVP
UniProt O94804: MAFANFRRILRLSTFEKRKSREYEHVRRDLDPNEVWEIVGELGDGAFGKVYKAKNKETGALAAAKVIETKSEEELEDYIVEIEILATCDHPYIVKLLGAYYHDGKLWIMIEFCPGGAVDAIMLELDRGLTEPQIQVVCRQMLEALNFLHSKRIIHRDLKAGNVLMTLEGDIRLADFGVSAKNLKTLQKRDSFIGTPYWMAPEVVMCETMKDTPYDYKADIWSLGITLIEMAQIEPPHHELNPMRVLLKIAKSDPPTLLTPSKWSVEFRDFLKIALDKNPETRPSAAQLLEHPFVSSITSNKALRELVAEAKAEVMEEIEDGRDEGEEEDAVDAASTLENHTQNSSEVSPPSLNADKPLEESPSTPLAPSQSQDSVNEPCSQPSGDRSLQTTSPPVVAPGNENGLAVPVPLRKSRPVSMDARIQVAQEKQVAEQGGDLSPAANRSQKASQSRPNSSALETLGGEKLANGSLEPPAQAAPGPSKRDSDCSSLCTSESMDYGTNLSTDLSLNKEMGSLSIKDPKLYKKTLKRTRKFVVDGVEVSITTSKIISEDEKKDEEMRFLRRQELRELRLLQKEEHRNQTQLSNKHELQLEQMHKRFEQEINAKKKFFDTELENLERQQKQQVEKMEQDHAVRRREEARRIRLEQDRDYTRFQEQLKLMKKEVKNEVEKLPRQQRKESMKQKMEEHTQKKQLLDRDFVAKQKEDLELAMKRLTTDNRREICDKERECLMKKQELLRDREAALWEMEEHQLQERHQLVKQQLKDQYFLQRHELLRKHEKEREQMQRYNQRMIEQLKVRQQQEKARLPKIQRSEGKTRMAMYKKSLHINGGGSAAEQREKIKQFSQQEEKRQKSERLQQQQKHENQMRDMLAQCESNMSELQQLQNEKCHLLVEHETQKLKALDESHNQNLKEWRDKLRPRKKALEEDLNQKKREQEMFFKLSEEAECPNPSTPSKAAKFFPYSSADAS
UniProt P05107, residues 23-769: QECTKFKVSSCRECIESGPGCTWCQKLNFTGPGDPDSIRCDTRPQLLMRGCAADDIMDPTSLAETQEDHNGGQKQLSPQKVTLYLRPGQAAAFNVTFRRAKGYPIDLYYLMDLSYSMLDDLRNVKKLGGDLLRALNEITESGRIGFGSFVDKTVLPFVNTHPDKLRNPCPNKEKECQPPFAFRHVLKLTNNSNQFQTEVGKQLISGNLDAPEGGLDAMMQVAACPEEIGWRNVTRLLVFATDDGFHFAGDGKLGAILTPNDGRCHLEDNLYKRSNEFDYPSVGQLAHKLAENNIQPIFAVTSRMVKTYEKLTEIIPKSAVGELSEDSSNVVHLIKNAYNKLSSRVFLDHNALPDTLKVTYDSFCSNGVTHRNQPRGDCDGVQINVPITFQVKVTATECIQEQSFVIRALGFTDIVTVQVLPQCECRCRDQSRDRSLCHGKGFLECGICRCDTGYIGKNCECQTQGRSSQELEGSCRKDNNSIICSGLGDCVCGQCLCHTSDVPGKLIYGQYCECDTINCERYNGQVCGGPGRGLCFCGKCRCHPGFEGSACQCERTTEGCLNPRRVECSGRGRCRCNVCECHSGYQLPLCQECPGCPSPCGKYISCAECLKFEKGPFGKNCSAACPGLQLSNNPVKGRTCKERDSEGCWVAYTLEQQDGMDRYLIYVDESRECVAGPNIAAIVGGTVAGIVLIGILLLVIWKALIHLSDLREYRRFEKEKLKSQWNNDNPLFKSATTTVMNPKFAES

Experiments:
[1] = target: T7-tagged Rap1N17 (constitutively negative mutant of human Rap1a) (human) (UniProt P62834); experiment: co-IP; COS cells transfected with FLAG-LOK together with T7-tagged Rap1V12 or Rap1N17; lysates immunoprecipitated with anti-T7, immunoblotted with anti-FLAG
[2] = target: T7-tagged Rap1V12 (constitutively active mutant of human Rap1a) (human) (UniProt P62834); experiment: as above
[3] = target: Halo-tagged FLNa, wild type (UniProt P21333); experiment: pull-down; lysates of COS cells transfected with Halo-FLNa (wild type or deletion mutants) and T7-Rap1V12 or N17, in one panel also αL and mRFP-β; precipitated with HaloLink resin; immunoblotted with anti-T7, Halo, mRFP, αL

## FLAG-tagged lymphocyte-oriented kinase (LOK), wild type, full-length (from UniProt O94804 1-968) (enzyme)
[1]
  binding: binds
[2]
  binding: no binding

## T7-tagged Rap1V12 (constitutively active mutant of human Rap1a) (from UniProt P62834 1-184)
[3]
  binding: binds

## mRFP-tagged β2 subunit of LFA-1 (expressed with αL in COS cells) (from UniProt P05107 23-769) (receptor)
[3]
  binding: binds
